No constants are given. Whether binding was seen depends on the method and setting. In cells and extracts the contact can be indirect. Here binding means that the protein was enriched with, or labelled near, the bait; the list need not be complete. Sequences can lack the tags named with a protein.
T1: MML-1::3xFLAG (MML-1 endogenously tagged with 3xFLAG) (C. elegans (endogenous in whole worms)) (UniProt P41846)
T1 sequence: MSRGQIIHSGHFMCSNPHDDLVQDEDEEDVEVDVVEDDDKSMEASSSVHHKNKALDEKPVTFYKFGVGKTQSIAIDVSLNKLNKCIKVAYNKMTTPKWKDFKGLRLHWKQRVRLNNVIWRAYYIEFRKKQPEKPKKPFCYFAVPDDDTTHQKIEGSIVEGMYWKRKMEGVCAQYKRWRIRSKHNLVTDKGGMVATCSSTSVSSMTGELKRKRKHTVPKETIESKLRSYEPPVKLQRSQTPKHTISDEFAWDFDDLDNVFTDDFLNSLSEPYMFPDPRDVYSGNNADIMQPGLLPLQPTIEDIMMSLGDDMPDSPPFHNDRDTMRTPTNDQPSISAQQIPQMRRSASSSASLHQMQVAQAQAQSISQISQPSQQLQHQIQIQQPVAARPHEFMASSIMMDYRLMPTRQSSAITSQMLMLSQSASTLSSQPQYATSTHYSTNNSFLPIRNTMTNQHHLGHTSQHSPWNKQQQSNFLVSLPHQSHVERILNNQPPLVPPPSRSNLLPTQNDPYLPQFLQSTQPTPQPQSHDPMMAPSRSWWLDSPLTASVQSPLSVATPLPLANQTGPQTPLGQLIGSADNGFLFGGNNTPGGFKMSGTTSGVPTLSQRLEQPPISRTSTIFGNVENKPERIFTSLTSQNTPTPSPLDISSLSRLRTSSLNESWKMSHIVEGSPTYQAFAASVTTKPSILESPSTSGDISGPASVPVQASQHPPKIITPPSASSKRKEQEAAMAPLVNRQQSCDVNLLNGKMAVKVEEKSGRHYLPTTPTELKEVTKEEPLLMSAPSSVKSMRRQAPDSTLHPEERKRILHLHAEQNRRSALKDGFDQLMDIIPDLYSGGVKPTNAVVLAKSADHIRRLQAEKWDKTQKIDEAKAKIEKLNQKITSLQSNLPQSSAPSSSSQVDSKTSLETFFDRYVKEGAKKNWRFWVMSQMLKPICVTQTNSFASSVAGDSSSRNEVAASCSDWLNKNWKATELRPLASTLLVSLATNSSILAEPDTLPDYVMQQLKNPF

B1: MXL-2 (protein, UniProt Q9TZ70 1-205)
chain: MSRSRSAAASSSQKPDDMDLMSPDGSASSPSAPNTPATNSGGFSSDRKKATHLRCERQRREAINSGYSDLKDLIPQTTTSLGCKTTNAAILFRACDFMSQLKTDISDADKQLAQLNAQAAALEMIASEYEQMASSVPDAGQSTIQVKMLQLLLDDCFTSFSSQVDFTTYATITRTLLSWVESLAPNAEPFKSTAGKMVTMPFTSP
B2: PLIN-1 (protein, UniProt A8WHP8 1-418)
chain: MTDVEQPVSVEDQQAQAQSYYDQVLGNAYVQTAINAYTKTKEFHPLLNSTLNSAEEKVSTVGNYAAQKAYDGYNSYYVKPKNTAYEAVSYGTERAKTAVESGKQAAIVGGTFGIGAAVVLTQFSLALSAGGAALVLEQVDSAKKLGSSAISTIKEAELAVEHRIFSALHQAQRIAMVPVEKITENTNSLLDILDGAVQKGLNIEVPPSVNLTIGQRVKNLASLIVQGVSNKLFKAHDHVIDPINERARNYLEQLSQSFVLLDIVREKKTWVIEKSNELSTSVFDFKKTLEEEAQKYKVAPEEMLMKHIQSTSEQLSTQLQSLREKGQNVFGDGTKIDSTIDYLENLKKNFTDAEDVYKVRDEVLNEGRQRIAELSTWTTSLLIISAEWQFEPEDLLIEELYFDAPPPVRTRNLYRNRA
B3: MPC-1 (protein, UniProt Q21828 1-137)
chain: MSRVISKVTTYFKQHSTAEWKHYFLSTHFWGPVANWGLPLAALGDLKKNPDMISGPMTSALLIYSSVFMRFAWHVQPRNLLLFACHFANFSAQGAQLGRFVNHNYLHYVEDPVHHKLMMKKEVLEHEHDAEVISKAH

Biological target: T1, MML-1::3xFLAG (MML-1 endogenously tagged with 3xFLAG) (C. elegans (endogenous in whole worms))
Experiment: affinity purification with mass spectrometry; anti-FLAG M2 magnetic beads with 7 mg whole-worm lysate (mixed population) of MML-1::3xFLAG worms, overnight at 4°C; washes with 300 mM NaCl; on-bead trypsin, LC-MS/MS, label-free quantification against non-transgenic wild-type control; three biological replicates

binding, binds:
B1
B2
B3

— PMC12339002
